Laboratory results taken from the supplement of paper PMC10849652.
The other results are listed elsewhere or left out.

Amino acid sequences for entries named in this document (tags omitted). A change or cut given only in a name is not applied to a line headed by its entry.
UniProt Q9Y324: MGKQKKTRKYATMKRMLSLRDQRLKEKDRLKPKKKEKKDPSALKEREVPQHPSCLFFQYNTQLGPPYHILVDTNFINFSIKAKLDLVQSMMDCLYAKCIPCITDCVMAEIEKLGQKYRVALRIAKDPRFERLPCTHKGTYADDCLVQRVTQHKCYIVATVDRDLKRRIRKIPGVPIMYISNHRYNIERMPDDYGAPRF
UniProt Q9NWM8: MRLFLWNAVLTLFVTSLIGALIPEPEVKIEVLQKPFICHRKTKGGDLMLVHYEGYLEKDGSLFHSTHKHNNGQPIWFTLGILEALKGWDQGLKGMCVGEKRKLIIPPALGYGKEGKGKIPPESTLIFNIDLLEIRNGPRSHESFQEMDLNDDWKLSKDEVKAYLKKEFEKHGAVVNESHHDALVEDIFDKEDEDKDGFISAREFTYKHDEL
UniProt A2RU67: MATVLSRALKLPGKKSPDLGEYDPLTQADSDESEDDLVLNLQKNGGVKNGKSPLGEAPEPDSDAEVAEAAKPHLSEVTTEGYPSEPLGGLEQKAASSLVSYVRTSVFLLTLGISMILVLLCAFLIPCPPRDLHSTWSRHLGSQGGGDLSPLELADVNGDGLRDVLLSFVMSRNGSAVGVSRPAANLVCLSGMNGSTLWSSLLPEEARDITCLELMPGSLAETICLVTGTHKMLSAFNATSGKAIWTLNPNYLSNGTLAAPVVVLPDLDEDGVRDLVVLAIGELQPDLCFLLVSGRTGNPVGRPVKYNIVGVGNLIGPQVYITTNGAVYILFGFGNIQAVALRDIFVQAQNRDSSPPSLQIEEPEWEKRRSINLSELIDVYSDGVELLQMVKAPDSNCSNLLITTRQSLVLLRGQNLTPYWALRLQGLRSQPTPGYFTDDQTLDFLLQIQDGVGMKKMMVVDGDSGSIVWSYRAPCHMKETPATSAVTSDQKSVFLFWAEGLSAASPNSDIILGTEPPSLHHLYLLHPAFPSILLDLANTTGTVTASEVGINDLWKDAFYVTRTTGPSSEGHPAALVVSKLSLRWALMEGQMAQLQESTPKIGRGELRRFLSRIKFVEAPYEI
UniProt O95363: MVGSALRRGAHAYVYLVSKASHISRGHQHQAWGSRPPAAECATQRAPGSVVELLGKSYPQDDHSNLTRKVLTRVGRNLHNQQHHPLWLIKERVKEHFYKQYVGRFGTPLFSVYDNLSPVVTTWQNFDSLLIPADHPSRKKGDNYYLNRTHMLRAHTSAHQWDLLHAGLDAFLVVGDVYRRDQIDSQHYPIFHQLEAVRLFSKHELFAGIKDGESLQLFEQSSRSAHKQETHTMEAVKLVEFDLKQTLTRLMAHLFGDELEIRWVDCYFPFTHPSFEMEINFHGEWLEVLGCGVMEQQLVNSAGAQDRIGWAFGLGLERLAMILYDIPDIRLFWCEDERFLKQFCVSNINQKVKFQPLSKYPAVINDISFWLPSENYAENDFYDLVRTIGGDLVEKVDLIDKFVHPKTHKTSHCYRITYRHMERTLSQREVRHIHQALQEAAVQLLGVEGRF
UniProt Q96GI7: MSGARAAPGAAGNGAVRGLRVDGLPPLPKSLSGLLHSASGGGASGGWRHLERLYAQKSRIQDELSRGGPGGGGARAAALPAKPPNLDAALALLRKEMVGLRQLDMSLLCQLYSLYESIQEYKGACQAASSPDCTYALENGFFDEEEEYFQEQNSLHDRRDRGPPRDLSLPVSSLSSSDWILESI
UniProt P98173: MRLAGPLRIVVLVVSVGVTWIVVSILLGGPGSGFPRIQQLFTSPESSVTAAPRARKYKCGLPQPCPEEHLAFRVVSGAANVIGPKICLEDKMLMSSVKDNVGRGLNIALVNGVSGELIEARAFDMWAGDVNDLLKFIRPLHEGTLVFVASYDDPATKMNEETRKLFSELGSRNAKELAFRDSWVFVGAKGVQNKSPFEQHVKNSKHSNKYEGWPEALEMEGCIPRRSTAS
UniProt Q14517: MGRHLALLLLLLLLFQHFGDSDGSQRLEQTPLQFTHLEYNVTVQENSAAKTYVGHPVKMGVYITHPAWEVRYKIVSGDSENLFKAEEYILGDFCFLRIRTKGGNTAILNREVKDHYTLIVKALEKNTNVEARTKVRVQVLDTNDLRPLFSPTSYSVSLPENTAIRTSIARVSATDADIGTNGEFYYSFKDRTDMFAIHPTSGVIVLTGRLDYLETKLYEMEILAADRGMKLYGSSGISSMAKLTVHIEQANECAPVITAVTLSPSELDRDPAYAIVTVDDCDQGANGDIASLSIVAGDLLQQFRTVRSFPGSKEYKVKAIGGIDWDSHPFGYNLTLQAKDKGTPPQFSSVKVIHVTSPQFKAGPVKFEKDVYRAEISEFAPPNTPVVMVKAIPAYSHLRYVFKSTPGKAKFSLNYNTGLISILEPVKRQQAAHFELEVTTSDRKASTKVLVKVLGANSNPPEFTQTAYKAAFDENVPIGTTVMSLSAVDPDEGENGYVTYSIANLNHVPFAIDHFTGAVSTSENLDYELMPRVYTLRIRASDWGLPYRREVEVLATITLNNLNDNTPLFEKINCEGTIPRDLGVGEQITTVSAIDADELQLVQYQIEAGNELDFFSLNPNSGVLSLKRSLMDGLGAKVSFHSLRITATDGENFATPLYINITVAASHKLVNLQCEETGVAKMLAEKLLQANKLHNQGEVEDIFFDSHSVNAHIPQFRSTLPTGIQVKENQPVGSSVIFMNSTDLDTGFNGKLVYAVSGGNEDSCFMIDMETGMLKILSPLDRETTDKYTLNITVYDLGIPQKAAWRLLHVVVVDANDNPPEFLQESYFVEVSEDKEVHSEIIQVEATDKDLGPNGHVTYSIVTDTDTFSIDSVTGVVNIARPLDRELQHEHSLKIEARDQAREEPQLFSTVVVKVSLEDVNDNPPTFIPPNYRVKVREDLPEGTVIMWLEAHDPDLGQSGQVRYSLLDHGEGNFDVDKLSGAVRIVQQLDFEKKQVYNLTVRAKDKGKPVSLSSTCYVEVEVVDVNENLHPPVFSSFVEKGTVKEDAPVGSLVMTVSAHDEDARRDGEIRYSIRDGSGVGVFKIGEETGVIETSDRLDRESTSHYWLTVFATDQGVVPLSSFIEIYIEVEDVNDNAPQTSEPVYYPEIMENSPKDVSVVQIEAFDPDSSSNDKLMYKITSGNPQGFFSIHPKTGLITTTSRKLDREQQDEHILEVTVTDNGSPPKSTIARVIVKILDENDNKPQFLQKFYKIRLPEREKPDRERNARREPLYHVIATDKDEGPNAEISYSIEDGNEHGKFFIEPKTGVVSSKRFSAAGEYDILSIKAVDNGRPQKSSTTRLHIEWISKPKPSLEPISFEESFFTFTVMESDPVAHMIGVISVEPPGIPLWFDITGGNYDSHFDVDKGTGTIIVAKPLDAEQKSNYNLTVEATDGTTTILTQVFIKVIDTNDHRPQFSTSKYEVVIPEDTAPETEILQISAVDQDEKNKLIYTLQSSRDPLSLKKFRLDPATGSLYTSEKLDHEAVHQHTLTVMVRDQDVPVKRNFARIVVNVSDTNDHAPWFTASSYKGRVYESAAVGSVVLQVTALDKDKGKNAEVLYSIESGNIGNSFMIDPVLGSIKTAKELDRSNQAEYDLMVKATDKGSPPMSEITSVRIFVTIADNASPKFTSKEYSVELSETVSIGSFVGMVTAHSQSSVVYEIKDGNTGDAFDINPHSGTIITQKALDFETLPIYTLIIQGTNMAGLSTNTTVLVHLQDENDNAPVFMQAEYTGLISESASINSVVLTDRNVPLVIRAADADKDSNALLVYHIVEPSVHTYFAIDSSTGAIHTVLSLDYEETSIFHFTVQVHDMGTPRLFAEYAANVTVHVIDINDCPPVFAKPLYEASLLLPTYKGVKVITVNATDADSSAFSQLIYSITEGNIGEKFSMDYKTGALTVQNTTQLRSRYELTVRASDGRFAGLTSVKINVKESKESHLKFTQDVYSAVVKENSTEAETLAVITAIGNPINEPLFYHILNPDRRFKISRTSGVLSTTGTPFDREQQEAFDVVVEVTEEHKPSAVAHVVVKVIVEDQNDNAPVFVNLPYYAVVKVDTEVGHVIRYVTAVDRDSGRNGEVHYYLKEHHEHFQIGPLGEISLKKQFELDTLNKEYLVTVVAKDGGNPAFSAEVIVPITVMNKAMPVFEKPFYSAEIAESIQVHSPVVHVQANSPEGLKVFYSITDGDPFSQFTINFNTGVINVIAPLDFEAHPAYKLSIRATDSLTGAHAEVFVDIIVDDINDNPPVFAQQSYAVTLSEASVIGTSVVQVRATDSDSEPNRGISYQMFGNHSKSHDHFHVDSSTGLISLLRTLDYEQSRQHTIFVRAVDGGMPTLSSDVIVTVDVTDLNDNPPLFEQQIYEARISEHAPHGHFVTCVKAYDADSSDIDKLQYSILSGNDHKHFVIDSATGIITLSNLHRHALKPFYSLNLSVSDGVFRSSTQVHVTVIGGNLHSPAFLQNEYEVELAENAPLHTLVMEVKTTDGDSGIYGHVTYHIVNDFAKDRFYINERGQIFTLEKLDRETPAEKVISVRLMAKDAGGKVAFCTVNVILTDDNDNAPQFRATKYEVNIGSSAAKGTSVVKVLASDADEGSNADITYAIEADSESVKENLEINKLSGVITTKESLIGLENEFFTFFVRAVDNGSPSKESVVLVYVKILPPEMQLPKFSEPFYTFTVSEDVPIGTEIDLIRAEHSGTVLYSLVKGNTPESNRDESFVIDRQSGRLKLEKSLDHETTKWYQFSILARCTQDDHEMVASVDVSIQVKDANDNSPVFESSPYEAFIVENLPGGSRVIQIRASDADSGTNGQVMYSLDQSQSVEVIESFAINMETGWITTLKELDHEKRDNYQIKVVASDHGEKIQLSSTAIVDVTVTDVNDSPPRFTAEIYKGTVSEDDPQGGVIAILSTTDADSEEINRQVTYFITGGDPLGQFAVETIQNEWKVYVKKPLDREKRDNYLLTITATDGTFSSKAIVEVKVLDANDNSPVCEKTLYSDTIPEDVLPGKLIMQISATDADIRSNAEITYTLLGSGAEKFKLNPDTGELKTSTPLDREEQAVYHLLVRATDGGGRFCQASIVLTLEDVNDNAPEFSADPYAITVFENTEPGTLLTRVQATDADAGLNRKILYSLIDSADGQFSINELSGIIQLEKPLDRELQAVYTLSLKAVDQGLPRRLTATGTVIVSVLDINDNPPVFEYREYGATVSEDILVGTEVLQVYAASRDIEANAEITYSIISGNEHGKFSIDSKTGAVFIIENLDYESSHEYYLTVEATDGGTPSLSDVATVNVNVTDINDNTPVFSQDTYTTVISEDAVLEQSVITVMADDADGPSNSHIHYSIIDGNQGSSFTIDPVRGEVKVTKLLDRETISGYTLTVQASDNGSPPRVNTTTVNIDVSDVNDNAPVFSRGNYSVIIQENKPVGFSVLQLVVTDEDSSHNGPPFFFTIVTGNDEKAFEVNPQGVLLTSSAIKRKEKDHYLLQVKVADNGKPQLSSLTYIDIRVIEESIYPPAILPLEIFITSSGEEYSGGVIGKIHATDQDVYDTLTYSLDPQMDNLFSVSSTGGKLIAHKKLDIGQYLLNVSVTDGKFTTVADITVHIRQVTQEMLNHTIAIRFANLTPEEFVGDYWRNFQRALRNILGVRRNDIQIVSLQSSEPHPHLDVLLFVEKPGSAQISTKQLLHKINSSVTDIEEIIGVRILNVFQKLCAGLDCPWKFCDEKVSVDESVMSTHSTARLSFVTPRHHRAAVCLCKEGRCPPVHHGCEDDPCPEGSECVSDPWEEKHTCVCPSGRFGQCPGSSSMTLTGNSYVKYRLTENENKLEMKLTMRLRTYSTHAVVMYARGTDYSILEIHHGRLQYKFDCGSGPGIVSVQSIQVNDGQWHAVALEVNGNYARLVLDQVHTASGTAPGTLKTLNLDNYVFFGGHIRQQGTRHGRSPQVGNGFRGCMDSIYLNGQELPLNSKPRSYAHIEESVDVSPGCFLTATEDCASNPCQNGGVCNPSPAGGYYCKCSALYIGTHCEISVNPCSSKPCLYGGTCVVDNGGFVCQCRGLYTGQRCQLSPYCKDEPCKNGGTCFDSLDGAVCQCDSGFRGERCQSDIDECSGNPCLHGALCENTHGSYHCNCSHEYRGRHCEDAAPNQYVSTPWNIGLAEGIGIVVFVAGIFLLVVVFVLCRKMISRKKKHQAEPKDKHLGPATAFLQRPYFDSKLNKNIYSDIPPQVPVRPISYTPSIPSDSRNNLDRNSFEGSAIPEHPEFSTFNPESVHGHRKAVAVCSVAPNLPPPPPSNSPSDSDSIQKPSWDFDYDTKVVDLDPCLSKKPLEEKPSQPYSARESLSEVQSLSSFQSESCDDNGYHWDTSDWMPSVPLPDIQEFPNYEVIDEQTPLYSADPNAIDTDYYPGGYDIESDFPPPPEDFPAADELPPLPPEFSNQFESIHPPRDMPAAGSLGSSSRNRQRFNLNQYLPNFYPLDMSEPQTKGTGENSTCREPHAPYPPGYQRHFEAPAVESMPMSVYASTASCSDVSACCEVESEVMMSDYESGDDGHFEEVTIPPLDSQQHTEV

Tests used:
Assay in all cases: log2 fold change, soluble protein after heating vs DMSO (PISA); higher = thermal stabilisation; K562 cells, 10 uM, 30 min; active = over 0.2 and 3.5 SD of the protein, either way, in both replicates (recomputed)
[1] = compound: CS(=O)(=O)c1ccc(-c2cnc(N)c(C(=O)Nc3ccccc3)n2)cc1
Outline: (§1)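 Values are thermal stability changes relative to control samples and are taken from duplicates. They are stated as log2 fold changes. Before quantification by TMTpro 16plex LC-MS/MS with equalised channel sums, K562 cells at 2×10^6 cells/mL were treated with 10 μM compound for 30 min, heated in aliquots for 3 min across 48°C-58°C, pooled, extracted in PBS with 0.5% NP-40 at 4°C, and centrifuged at 21,000xg for 90 min to give the soluble supernatant.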

crizotinib = compound: C[C@@H](Oc1cc(-c2cnn(C3CCNCC3)c2)cnc1N)c1c(Cl)ccc(F)c1Cl [crizotinib]
Outline: as §1

[2] = compound: C[C@@H]1COCCN1C2=NC(=NC(=C2)C3(CC3)S(=O)(=O)C)C4=C5C=CNC5=CC=C4
Outline: as §1

[3] = compound: C[C@H](C1=CC=C(C=C1)C(=O)NC2=C3C=CNC3=NC=C2)N
Outline: as §1

gandotinib = compound: Cc1cc(Nc2cc(CN3CCOCC3)c3nc(C)c(Cc4ccc(Cl)cc4F)n3n2)n[nH]1 [gandotinib]
Outline: as §1

[4] = compound: Cc1cc(SCc2sc(-c3ccc(C(F)(F)F)cc3)nc2C)ccc1OCC(=O)O
Outline: as §1

doramapimod = compound: Cc1ccc(-n2nc(C(C)(C)C)cc2NC(=O)Nc2ccc(OCCN3CCOCC3)c3ccccc23)cc1 [doramapimod]
Outline: as §1

ispinesib = compound: Cc1ccc(C(=O)N(CCCN)[C@@H](c2nc3cc(Cl)ccc3c(=O)n2Cc2ccccc2)C(C)C)cc1 [ispinesib]
Outline: as §1

bafetinib = compound: Cc1ccc(NC(=O)c2ccc(CN3CC[C@H](N(C)C)C3)c(C(F)(F)F)c2)cc1Nc1nccc(-c2cncnc2)n1 [bafetinib]
Outline: as §1

[5] = compound: Cc1cccc(CC(=O)N2CCc3c2ccc(-c2cn(C)c4ncnc(N)c24)c3F)n1
Outline: as §1

nilotinib = compound: Cc1cn(-c2cc(NC(=O)c3ccc(C)c(Nc4nccc(-c5cccnc5)n4)c3)cc(C(F)(F)F)c2)cn1 [nilotinib]
Outline: as §1

[6] = compound: Cc1nc(Nc2n[nH]c3c2CN(C(=O)N[C@H](CN(C)C)c2ccccc2)C3(C)C)c2sccc2n1
Outline: as §1

[7] = compound: Cc1ncc(-c2ccnc(Nc3ccc(S(C)(=O)=O)cc3)n2)n1C(C)C
Outline: as §1

[8] = compound: Cn1cc(-c2ccc3c(c2)CCN3C(=O)Cc2cccc(C(F)(F)F)c2)c2c(N)ncnc21
Outline: as §1

[9] = compound: Cn1cc(-c2ccc3nnc(C(F)(F)c4ccc5ncccc5c4)n3n2)cn1
Outline: as §1

tipifarnib = compound: Cn1cncc1[C@@](N)(c1ccc(Cl)cc1)c1ccc2c(c1)c(-c1cccc(Cl)c1)cc(=O)n2C [tipifarnib]
Outline: as §1

mubritinib = compound: FC(F)(F)c1ccc(/C=C/c2nc(COc3ccc(CCCCn4ccnn4)cc3)co2)cc1 [mubritinib]
Outline: as §1

tozasertib = compound: Cc1cc(Nc2cc(N3CCN(C)CC3)nc(Sc3ccc(NC(=O)C4CC4)cc3)n2)n[nH]1 [tozasertib]
Outline: as §1

dasatinib = compound: Cc1nc(Nc2ncc(C(=O)Nc3c(C)cccc3Cl)s2)cc(N2CCN(CCO)CC2)n1 [dasatinib]
Outline: as §1

duvelisib = compound: C[C@H](Nc1ncnc2nc[nH]c12)c1cc2cccc(Cl)c2c(=O)n1-c1ccccc1 [duvelisib]
Outline: as §1

Measured: log2 fold change

FEN1 (UniProt P39748)
active: crizotinib -0.488
inactive: [1] 0.018 | [2] 0.367 | [3] -0.018 | gandotinib -0.162 | [4] 0.177 | doramapimod -0.065 | ispinesib -0.126 | bafetinib 0.02 | [5] 0.23 | nilotinib -0.149 | [6] 0.053 | [7] -0.05 | [8] 0.16 | [9] 0.164 | tipifarnib -0.274 | mubritinib 0.314

FBXL8 (UniProt Q96CD0)
inactive: [1] -0.162 | [2] 0.099 | [3] -0.023 | tozasertib -0.165 | bafetinib 0.024 | [8] -0.062

FCF1 (UniProt Q9Y324)
inactive: [1] 0.06 | crizotinib -0.054 | [2] -0.225 | gandotinib 0.155 | [4] 0.103 | doramapimod 0.244 | ispinesib -0.095 | [5] 0.042 | dasatinib 0.139 | [9] -0.119 | tipifarnib 0.242 | mubritinib -0.129

FAM241A (UniProt Q8N8J7)
inactive: [1] -0.235 | crizotinib 0.117 | [3] -0.007 | gandotinib -0.077 | [4] -0.034 | doramapimod -0.018 | ispinesib -0.069 | bafetinib -0.143 | [5] -0.056 | nilotinib -0.027 | [6] 0.029 | dasatinib 0.02 | [7] -0.095 | [8] 0.046 | [9] 0.049 | tipifarnib 0.008 | mubritinib 0.028

FKBP14 (UniProt Q9NWM8)
inactive: [1] 0.039 | [2] 0.016 | [3] 0.037 | duvelisib -0.089 | gandotinib 0.012 | tozasertib -0.021 | [4] 0.129 | ispinesib -0.02 | bafetinib -0.021 | [5] 0.005 | nilotinib -0.039 | [6] 0.122 | dasatinib -0.055 | [7] -0.024 | [8] 0.009 | [9] 0.056 | tipifarnib -0.13 | mubritinib -0.055

FAM234B (UniProt A2RU67)
inactive: [1] -0.004 | crizotinib -0.002 | [3] -0.099 | tozasertib -0.026 | doramapimod 0.074 | ispinesib 0.137 | bafetinib -0.022 | [8] 0.291 | [9] -0.1 | tipifarnib 0.058

FBXO42 (UniProt Q6P3S6)
inactive: [1] 0.077 | [2] 0.127 | [3] -0.064 | gandotinib -0.022 | [4] 0.063 | doramapimod 0.01 | ispinesib -0.015 | bafetinib -0.014 | [5] -0.006 | nilotinib -0.006 | [6] 0.028 | dasatinib -0.036 | [7] -0.026 | [8] 0.137 | [9] -0.007 | tipifarnib 0.006 | mubritinib 0.059
active: crizotinib 0.4

FARS2 (UniProt O95363)
inactive: [1] 0.004 | crizotinib -0.043 | [2] 0.088 | [3] 0.041 | gandotinib -0.021 | [4] 0.06 | doramapimod -0.023 | ispinesib -0.157 | bafetinib -0.058 | [5] 0.064 | nilotinib -0.126 | [6] 0.079 | dasatinib -0.058 | [7] -0.097 | [8] 0.039 | [9] 0.039 | tipifarnib 0.018 | mubritinib -0.168

FAM89A (UniProt Q96GI7)
inactive: [1] -0.028 | crizotinib -0.115 | doramapimod 0.014 | ispinesib 0.047 | bafetinib 0 | nilotinib 0.351 | [6] -0.287 | [7] -0.166 | [9] -0.111 | mubritinib 0.087

Reprinted at random: 2 records from the list
FAM241A (UniProt Q8N8J7)
inactive: [1] -0.235 | crizotinib 0.117 | [3] -0.007 | gandotinib -0.077 | [4] -0.034 | doramapimod -0.018 | ispinesib -0.069 | bafetinib -0.143 | [5] -0.056 | nilotinib -0.027 | [6] 0.029 | dasatinib 0.02 | [7] -0.095 | [8] 0.046 | [9] 0.049 | tipifarnib 0.008 | mubritinib 0.028

FARS2 (UniProt O95363)
inactive: [1] 0.004 | crizotinib -0.043 | [2] 0.088 | [3] 0.041 | gandotinib -0.021 | [4] 0.06 | doramapimod -0.023 | ispinesib -0.157 | bafetinib -0.058 | [5] 0.064 | nilotinib -0.126 | [6] 0.079 | dasatinib -0.058 | [7] -0.097 | [8] 0.039 | [9] 0.039 | tipifarnib 0.018 | mubritinib -0.168

Remaining list, next part

FHL1 isoform 4 (UniProt Q13642)
inactive: [1] 0 | [2] -0.1 | [3] -0.047 | duvelisib 0.237 | tozasertib -0.01 | [4] -0.162 | bafetinib -0.03 | nilotinib -0.021 | [6] 0.205 | dasatinib 0.143 | [7] 0.025 | [8] 0 | tipifarnib 0.068

FCHO1 (UniProt O14526)
inactive: [1] 0.033 | crizotinib -0.118 | [2] 0.158 | [3] 0.161 | [4] 0.109 | doramapimod -0.009 | ispinesib -0.264 | nilotinib -0.118 | [6] -0.067 | dasatinib -0.275 | [7] -0.127 | [8] 0.079 | [9] 0.033 | tipifarnib -0.119 | mubritinib -0.003

FAM83D (UniProt Q9H4H8)
active: gandotinib -0.308
inactive: [1] -0.018 | crizotinib -0.061 | [2] 0.021 | [3] 0.014 | [4] 0.08 | doramapimod -0.009 | ispinesib 0.064 | bafetinib -0.022 | [5] 0.145 | nilotinib -0.069 | [6] -0.088 | dasatinib -0.241 | [7] 0.016 | [8] -0.073 | [9] -0.027 | tipifarnib -0.107 | mubritinib 0.023

FLNA (UniProt P21333)
inactive: [1] 0.014 | crizotinib -0.078 | [2] -0.01 | [3] 0.04 | gandotinib -0.045 | [4] 0.127 | doramapimod -0.013 | ispinesib -0.025 | bafetinib 0.011 | [5] 0.059 | nilotinib -0.056 | [6] -0.025 | dasatinib -0.158 | [7] 0.059 | [8] -0.053 | [9] 0.007 | tipifarnib -0.176 | mubritinib 0.112

FAM91A1 (UniProt Q658Y4)
inactive: [1] -0.11 | crizotinib -0.006 | [2] 0.192 | [3] -0.034 | gandotinib -0.08 | [4] -0.001 | doramapimod -0.012 | ispinesib 0.014 | bafetinib -0.01 | [5] 0.07 | nilotinib -0.007 | [6] 0.073 | dasatinib -0.048 | [7] 0.01 | [8] 0.021 | [9] -0.015 | tipifarnib -0.004 | mubritinib 0.052

FBL (UniProt P22087)
inactive: [1] -0.054 | crizotinib 0.075 | [2] -0.266 | [3] 0.379 | gandotinib 0.124 | [4] -0.01 | doramapimod 0.279 | ispinesib 0.097 | bafetinib 0.29 | [5] -0.039 | nilotinib 0.094 | [6] -0.017 | dasatinib 0.454 | [7] -0.01 | [8] -0.337 | [9] -0.097 | tipifarnib 0.301 | mubritinib -0.241

FIS1 (UniProt Q9Y3D6)
active: [3] -0.286
inactive: [1] -0.017 | crizotinib 0.045 | [2] 0.037 | gandotinib 0.032 | [4] 0.071 | doramapimod 0.02 | ispinesib -0.007 | bafetinib -0.087 | [5] -0.034 | nilotinib 0.041 | [6] -0.002 | dasatinib -0.044 | [7] 0.007 | [8] 0.111 | [9] 0.07 | tipifarnib -0.024 | mubritinib 0.053

FKRP (UniProt Q9H9S5)
inactive: [1] 0.032 | [2] -0.041 | duvelisib 0.034 | gandotinib -0.052 | tozasertib -0.199 | [4] -0.074 | ispinesib -0.01 | bafetinib -0.128 | [5] 0.047 | nilotinib 0.019 | [6] 0.009 | dasatinib -0.032 | [7] -0.017 | [9] 0.063 | tipifarnib -0.003 | mubritinib 0.077

FMR1 (UniProt Q06787)
inactive: [1] -0.067 | crizotinib 0.151 | [3] 0.199 | gandotinib 0.045 | doramapimod -0.065 | ispinesib -0.022 | [5] -0.146 | [8] -0.224 | [9] -0.028 | tipifarnib -0.129 | mubritinib -0.175

FAM3A (UniProt P98173)
inactive: [1] 0.01 | crizotinib -0.071 | [2] 0.07 | [3] 0.01 | gandotinib 0.014 | [4] -0.075 | doramapimod 0.009 | ispinesib -0.065 | bafetinib -0.027 | [5] 0.023 | nilotinib 0.007 | [6] -0.044 | dasatinib 0.036 | [7] -0.001 | [8] 0.031 | [9] -0.03 | tipifarnib 0.042 | mubritinib 0

FAT1 (UniProt Q14517)
active: doramapimod -0.435
inactive: [1] 0.027 | crizotinib 0.061 | [2] -0.054 | [3] 0.144 | gandotinib 0.061 | [4] 0.009 | ispinesib -0.096 | bafetinib -0.061 | [5] 0.044 | nilotinib 0.013 | [6] 0 | dasatinib 0.046 | [7] -0.064 | [8] 0.009 | [9] -0.052 | tipifarnib 0.077 | mubritinib 0.057
